According to PMC3856536:
Results are given in words; binding and its absence hold for the method and conditions named. In cells and extracts the contact can be indirect. Some entries that bind do so weakly or less than the wild type.

Protein sequences, listed by entry. Tags and fused reporters are not part of them.
UniProt P35222: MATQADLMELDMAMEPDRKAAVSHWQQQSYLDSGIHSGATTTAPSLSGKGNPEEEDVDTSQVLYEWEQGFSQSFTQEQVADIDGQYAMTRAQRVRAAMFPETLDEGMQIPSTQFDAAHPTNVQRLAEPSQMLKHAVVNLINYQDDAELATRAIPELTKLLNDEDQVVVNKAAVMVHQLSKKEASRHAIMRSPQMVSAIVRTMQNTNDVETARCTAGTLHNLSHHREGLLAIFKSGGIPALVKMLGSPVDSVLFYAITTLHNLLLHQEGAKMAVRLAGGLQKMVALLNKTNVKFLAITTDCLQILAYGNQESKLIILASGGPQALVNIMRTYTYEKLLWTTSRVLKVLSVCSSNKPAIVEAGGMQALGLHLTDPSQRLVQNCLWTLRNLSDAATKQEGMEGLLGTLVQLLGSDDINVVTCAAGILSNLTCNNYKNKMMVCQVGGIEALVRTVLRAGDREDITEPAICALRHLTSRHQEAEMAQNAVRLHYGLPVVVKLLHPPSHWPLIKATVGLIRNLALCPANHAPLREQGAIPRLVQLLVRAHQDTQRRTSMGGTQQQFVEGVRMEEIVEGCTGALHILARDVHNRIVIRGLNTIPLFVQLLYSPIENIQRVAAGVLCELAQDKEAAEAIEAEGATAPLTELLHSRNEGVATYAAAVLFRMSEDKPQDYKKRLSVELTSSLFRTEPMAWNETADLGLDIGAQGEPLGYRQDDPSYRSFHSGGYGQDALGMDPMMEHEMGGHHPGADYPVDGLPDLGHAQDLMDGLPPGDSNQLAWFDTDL

Assays:
[1] = target: T1, Protein Ser/Thr phosphatase-6 catalytic subunit (PP6c), endogenous in Caco-2 cells (human (endogenous in Caco-2)) (UniProt O00743); assay: co-IP; anti-PP6c antibody cross-linked to protein G-agarose beads, cytosolic fraction of Caco-2 cells (MOPS buffer); non-immune IgG as control; immunoblot
T1 sequence: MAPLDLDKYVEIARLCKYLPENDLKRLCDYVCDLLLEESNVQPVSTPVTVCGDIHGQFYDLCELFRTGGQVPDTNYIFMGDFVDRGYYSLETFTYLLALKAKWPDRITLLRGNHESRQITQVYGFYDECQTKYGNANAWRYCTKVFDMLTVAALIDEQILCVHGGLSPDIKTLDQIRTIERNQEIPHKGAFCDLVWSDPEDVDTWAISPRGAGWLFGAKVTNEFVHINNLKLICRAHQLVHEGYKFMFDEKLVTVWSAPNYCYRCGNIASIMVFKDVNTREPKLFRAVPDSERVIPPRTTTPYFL

[2] = target: T1, Protein Ser/Thr phosphatase-6 catalytic subunit (PP6c), endogenous in Caco-2 cells (human (endogenous in Caco-2)); assay: co-IP; anti-PP6c antibody cross-linked to protein G-agarose beads, membrane fraction of Caco-2 cells (MOPS buffer with 1% Nonidet P-40); non-immune IgG as control; immunoblot

binding [2]: binds
Substance: β-catenin, endogenous in Caco-2 cells (from UniProt P35222 1-781)
binding [1]: no binding (condition: in the cytosolic fraction)
